Test results: patent publication US20060171983A1, “Use of Vitamin D receptor activators or Vitamin D analogs to treat cardiovascular disease” (priority 2003, published 2006)
Some entries share one result that the patent states for a list of compounds.

Test: Vascular calcification in 5/6 nephrectomized uremic rats
Assay type: in vivo, rat
Conditions: 0.67 μg/kg
Method: The 5/6 nephrectomized rats were obtained from Charles River Labs. (Wilmington, Mass.). Two weeks after nephrectomy, rats were put on a diet containing 0.9% phosphorous and 0.6% calcium for 4 weeks, followed by treatment with vehicle (5% ethanol+95% propylene glycol, 0.4 ml/kg), paricalcitol or doxercalciferol at 0.67 μg/kg, i.p., 3 times/week, for 2 weeks. Twenty-four hours after the last dosing, blood was collected via tail vein under ketamine anesthesia (50 mg/kg) and aorta collected for calcification studies. […] After the aortas were removed in a sterile manner from the rats, the aventitia was gently removed and each aorta was washed three times with medium. A segment of each aorta was processed for calcium and phoshphorus determination. A separate portion of each aorta was denuded, cut into 2-3-mm rings and placed in DMEM containing 0.2 μCi/ml ^45Ca for 3 days at 37° C. Afterwards, aortic rings were washed, dried, weighed, and then dissolved to determine radioactivity. […] Both paricalcitol and doxercalciferol at 0.67 μg/kg elevated iCa (˜25%) and suppressed PTH (>90%).

| SMILES | suppression of PTH [%] |
| --- | --- |
| C=C1/C(=C\C=C2/CCC[C@]3(C)[C@@H]([C@H](C)/C=C/[C@H](C)C(C)C)CC[C@@H]23)C[C@@H](O)C[C@@H]1O [doxercalciferol] | > 90 |
| C[C@H](/C=C/[C@H](C)C(C)(C)O)[C@H]1CC[C@H]2/C(=C/C=C3C[C@@H](O)C[C@H](O)C3)CCC[C@]12C [paricalcitol] | > 90 |
